PubChem BioAssay AID1224830, NIAID | 2016

Test: 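Genes whose knock-down alters the TNF-alpha reporter response to LPS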 (primary screen)
Cell system: human THP-1 monocytic leukaemia cells, TNF dual-luciferase reporter clone, PMA-differentiated to macrophage-like cells
Reagents: siRNA pool against human genes, 50 nM
Timing: LPS for 4 h, given about 3 days after siRNA transfection
Challenge: bacterial LPS (TLR4 ligand), 10 ng/ml
Detection: 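TNF firefly reporter luminescence divided by renilla, normalised to the plate median, then turned into a robust z-score for each replicate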
Scale: TNF reporter robust z-score: higher = stronger TNF reporter response to LPS
Active means: 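Each well counts as active if its z-score is over 2.8 or under -1.5; controls are left without a call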
Shown is one part, drawn at random, of about 18,000 reagents. About 2,900 of all reagents (16%) were called active. 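Calls are made per well; low scores hint the gene aids the LPS response, high scores that it dampens it.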 Repeated entries: four replicate wells of each siRNA pool.

| Gene | TNF reporter robust z-score | Call |
| --- | --- | --- |
| TAF10 (GeneID 6881) | 1.46 | inactive |
| TAF10 (GeneID 6881) | 2.53 | inactive |
| TAF10 (GeneID 6881) | 2.32 | inactive |
| TAF10 (GeneID 6881) | 0.59 | inactive |
| ANKRD13C-DT (GeneID 11147) | 0.18 | inactive |
| ANKRD13C-DT (GeneID 11147) | 0.76 | inactive |
| ANKRD13C-DT (GeneID 11147) | -1.49 | inactive |
| ANKRD13C-DT (GeneID 11147) | -0.78 | inactive |
| SRRM4 (GeneID 84530) | -0.8 | inactive |
| SRRM4 (GeneID 84530) | -0.95 | inactive |
| SRRM4 (GeneID 84530) | -1.17 | inactive |
| SRRM4 (GeneID 84530) | -0.69 | inactive |
| OR4C3 (GeneID 256144) | -0.37 | inactive |
| OR4C3 (GeneID 256144) | -0.71 | inactive |
| OR4C3 (GeneID 256144) | -1.15 | inactive |
| OR4C3 (GeneID 256144) | -0.4 | inactive |
| ACTBL2 (GeneID 345651) | -0.02 | inactive |
| ACTBL2 (GeneID 345651) | -0.31 | inactive |
| ACTBL2 (GeneID 345651) | -0.56 | inactive |
| ACTBL2 (GeneID 345651) | -0.81 | inactive |
| TTI1 (GeneID 9675) | 0.31 | inactive |
| TTI1 (GeneID 9675) | 1.57 | inactive |
| TTI1 (GeneID 9675) | -0.71 | inactive |
| TTI1 (GeneID 9675) | 2.9 | active |
| PLGLB2 (GeneID 5342) | -0.63 | inactive |
| PLGLB2 (GeneID 5342) | 1.43 | inactive |
| PLGLB2 (GeneID 5342) | -0.09 | inactive |
| PLGLB2 (GeneID 5342) | -0.24 | inactive |
| DUSP2 (GeneID 1844) | 1.35 | inactive |
| DUSP2 (GeneID 1844) | -0.41 | inactive |
| DUSP2 (GeneID 1844) | 0.19 | inactive |
| DUSP2 (GeneID 1844) | 3.04 | active |
| EPS8L3 (GeneID 79574) | 2.39 | inactive |
| EPS8L3 (GeneID 79574) | 2.53 | inactive |
| EPS8L3 (GeneID 79574) | -0.76 | inactive |
| EPS8L3 (GeneID 79574) | -0.48 | inactive |
| SAMD12 (GeneID 401474) | 0.06 | inactive |
| SAMD12 (GeneID 401474) | 1.23 | inactive |
| SAMD12 (GeneID 401474) | 2.34 | inactive |
| SAMD12 (GeneID 401474) | 1.71 | inactive |
| SMIM43 (GeneID 132332) | 1.6 | inactive |
| SMIM43 (GeneID 132332) | 1.97 | inactive |
| SMIM43 (GeneID 132332) | 0.63 | inactive |
| SMIM43 (GeneID 132332) | 1.43 | inactive |
| PTPN2 (GeneID 5771) | -0.91 | inactive |
| PTPN2 (GeneID 5771) | -1.65 | active |
| PTPN2 (GeneID 5771) | -0.75 | inactive |
| PTPN2 (GeneID 5771) | 0.93 | inactive |
| DCC (GeneID 1630) | 3.4 | active |
| DCC (GeneID 1630) | 1.31 | inactive |
| DCC (GeneID 1630) | 1.01 | inactive |
| DCC (GeneID 1630) | 0.14 | inactive |
| KAT2A (GeneID 2648) | -1.29 | inactive |
| KAT2A (GeneID 2648) | 1.83 | inactive |
| KAT2A (GeneID 2648) | 1.11 | inactive |
| KAT2A (GeneID 2648) | 0.84 | inactive |
| DCBLD1 (GeneID 285761) | -0.11 | inactive |
| DCBLD1 (GeneID 285761) | 0.4 | inactive |
| DCBLD1 (GeneID 285761) | 0.75 | inactive |
| DCBLD1 (GeneID 285761) | 1.75 | inactive |
| OR5D16 (GeneID 390144) | -0.67 | inactive |
| OR5D16 (GeneID 390144) | -1.39 | inactive |
| OR5D16 (GeneID 390144) | -1.01 | inactive |
| OR5D16 (GeneID 390144) | -0.54 | inactive |
| C1QTNF8 (GeneID 390664) | -0.47 | inactive |
| C1QTNF8 (GeneID 390664) | 0.86 | inactive |
| C1QTNF8 (GeneID 390664) | 0.74 | inactive |
| C1QTNF8 (GeneID 390664) | -0.39 | inactive |
| ANGPT2 (GeneID 285) | 0.63 | inactive |
| ANGPT2 (GeneID 285) | 0.08 | inactive |
| ANGPT2 (GeneID 285) | 0.23 | inactive |
| ANGPT2 (GeneID 285) | 0.44 | inactive |
| PHC1 (GeneID 1911) | 1.09 | inactive |
| PHC1 (GeneID 1911) | 0.05 | inactive |
| PHC1 (GeneID 1911) | 0.84 | inactive |
| PHC1 (GeneID 1911) | 2.1 | inactive |
| ATP1B1 (GeneID 481) | 0.37 | inactive |
| ATP1B1 (GeneID 481) | 0.56 | inactive |
| ATP1B1 (GeneID 481) | -0.06 | inactive |
| ATP1B1 (GeneID 481) | 1.39 | inactive |
| ZNF207 (GeneID 7756) | -0.6 | inactive |
| ZNF207 (GeneID 7756) | 0.15 | inactive |
| ZNF207 (GeneID 7756) | 0.35 | inactive |
| ZNF207 (GeneID 7756) | -0.04 | inactive |
| CYGB (GeneID 114757) | -0.15 | inactive |
| CYGB (GeneID 114757) | 0.29 | inactive |
| CYGB (GeneID 114757) | -0.45 | inactive |
| CYGB (GeneID 114757) | -0.44 | inactive |
| PIN1 (GeneID 5300) | -0.29 | inactive |
| PIN1 (GeneID 5300) | 0.05 | inactive |
| PIN1 (GeneID 5300) | 0.75 | inactive |
| PIN1 (GeneID 5300) | 0.11 | inactive |
| RGS22 (GeneID 26166) | 1.68 | inactive |
| RGS22 (GeneID 26166) | 1.75 | inactive |
| RGS22 (GeneID 26166) | 0.87 | inactive |
| RGS22 (GeneID 26166) | -1.02 | inactive |
| MMP24 (GeneID 10893) | -0.59 | inactive |
| MMP24 (GeneID 10893) | -1.14 | inactive |
| MMP24 (GeneID 10893) | -0.04 | inactive |
| MMP24 (GeneID 10893) | -0.01 | inactive |
| RBMS1 (GeneID 5937) | 3.76 | active |
| RBMS1 (GeneID 5937) | 0.33 | inactive |
| RBMS1 (GeneID 5937) | 4.07 | active |
| RBMS1 (GeneID 5937) | 1.96 | inactive |
| ANKMY1 (GeneID 51281) | -0.89 | inactive |
| ANKMY1 (GeneID 51281) | -1.14 | inactive |
| ANKMY1 (GeneID 51281) | -1.01 | inactive |
| ANKMY1 (GeneID 51281) | -0.66 | inactive |
| DCK (GeneID 1633) | -1.21 | inactive |
| DCK (GeneID 1633) | -1.06 | inactive |
| DCK (GeneID 1633) | -0.86 | inactive |
| DCK (GeneID 1633) | -1.04 | inactive |
| S100A5 (GeneID 6276) | 1.38 | inactive |
| S100A5 (GeneID 6276) | 1.56 | inactive |
| S100A5 (GeneID 6276) | 0.21 | inactive |
| S100A5 (GeneID 6276) | 0.96 | inactive |
| IL12RB1 (GeneID 3594) | 0.38 | inactive |
| IL12RB1 (GeneID 3594) | -0.3 | inactive |
| IL12RB1 (GeneID 3594) | 0.09 | inactive |
| IL12RB1 (GeneID 3594) | 0.36 | inactive |
| BAGE (GeneID 574) | 0.14 | inactive |
| BAGE (GeneID 574) | 0.09 | inactive |
| BAGE (GeneID 574) | 0.4 | inactive |
| CHRM1 (GeneID 1128) | -0.56 | inactive |
| CHRM1 (GeneID 1128) | -0.02 | inactive |
| CHRM1 (GeneID 1128) | 0.26 | inactive |
| STK11 (GeneID 6794) | -0.45 | inactive |
| STK11 (GeneID 6794) | 0.37 | inactive |
| STK11 (GeneID 6794) | -0.74 | inactive |
| STK11 (GeneID 6794) | 0.26 | inactive |
| ARRDC2 (GeneID 27106) | -1.84 | active |
| ARRDC2 (GeneID 27106) | -1.7 | active |
| ARRDC2 (GeneID 27106) | -1.75 | active |
| ARRDC2 (GeneID 27106) | -1.36 | inactive |
| JARID2 (GeneID 3720) | -0.24 | inactive |
| JARID2 (GeneID 3720) | -0.62 | inactive |
| JARID2 (GeneID 3720) | -0.64 | inactive |
| JARID2 (GeneID 3720) | -0.41 | inactive |
| SDHC (GeneID 6391) | -1.53 | active |
| SDHC (GeneID 6391) | -1.44 | inactive |
| SDHC (GeneID 6391) | -0.6 | inactive |
| SDHC (GeneID 6391) | -1.22 | inactive |
